Primary screen of a compound library

Amino acid sequences for entries named in this document (tags omitted). Residues count along the entry.
UniProt Q4DA54, 1-478: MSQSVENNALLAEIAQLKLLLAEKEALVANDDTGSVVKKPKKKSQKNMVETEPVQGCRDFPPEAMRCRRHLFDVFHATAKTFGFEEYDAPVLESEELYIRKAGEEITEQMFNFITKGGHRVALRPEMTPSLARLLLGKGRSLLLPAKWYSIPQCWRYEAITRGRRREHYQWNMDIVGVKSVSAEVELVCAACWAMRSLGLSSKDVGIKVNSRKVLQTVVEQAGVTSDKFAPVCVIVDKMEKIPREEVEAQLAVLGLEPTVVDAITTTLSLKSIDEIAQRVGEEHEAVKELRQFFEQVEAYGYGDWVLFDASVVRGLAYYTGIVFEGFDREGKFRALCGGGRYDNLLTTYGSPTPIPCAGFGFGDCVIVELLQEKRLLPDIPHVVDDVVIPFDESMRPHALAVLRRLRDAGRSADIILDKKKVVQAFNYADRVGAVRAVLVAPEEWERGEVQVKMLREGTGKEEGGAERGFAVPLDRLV
UniProt P9WPC5, whole entry: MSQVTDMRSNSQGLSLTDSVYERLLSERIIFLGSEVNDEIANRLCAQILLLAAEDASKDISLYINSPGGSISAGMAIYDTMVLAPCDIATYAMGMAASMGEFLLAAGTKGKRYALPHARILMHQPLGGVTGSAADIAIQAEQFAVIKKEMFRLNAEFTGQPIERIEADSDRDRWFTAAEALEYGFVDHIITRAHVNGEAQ
UniProt P9WPC3, whole entry partner: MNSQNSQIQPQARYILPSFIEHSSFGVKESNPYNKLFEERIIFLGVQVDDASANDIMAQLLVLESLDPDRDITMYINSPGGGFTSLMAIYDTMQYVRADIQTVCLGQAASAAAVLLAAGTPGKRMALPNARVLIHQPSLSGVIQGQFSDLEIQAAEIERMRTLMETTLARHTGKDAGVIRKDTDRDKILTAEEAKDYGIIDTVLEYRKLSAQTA
UniProt Q8IDJ8, 1-583: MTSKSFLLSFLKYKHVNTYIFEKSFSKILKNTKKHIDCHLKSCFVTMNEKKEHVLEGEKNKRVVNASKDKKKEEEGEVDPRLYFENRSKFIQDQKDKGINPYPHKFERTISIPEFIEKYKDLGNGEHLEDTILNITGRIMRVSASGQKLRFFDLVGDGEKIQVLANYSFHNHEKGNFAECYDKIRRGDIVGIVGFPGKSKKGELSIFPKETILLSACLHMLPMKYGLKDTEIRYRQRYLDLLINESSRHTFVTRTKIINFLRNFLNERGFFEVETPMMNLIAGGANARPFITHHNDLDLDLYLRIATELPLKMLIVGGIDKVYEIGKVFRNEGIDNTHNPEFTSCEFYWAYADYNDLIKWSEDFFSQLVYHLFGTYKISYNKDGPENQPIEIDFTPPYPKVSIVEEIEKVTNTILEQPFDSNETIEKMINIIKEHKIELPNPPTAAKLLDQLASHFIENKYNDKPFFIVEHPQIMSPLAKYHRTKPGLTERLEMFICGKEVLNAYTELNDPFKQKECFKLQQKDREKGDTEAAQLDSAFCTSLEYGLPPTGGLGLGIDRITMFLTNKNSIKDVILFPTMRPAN
UniProt A4I591, 1-473: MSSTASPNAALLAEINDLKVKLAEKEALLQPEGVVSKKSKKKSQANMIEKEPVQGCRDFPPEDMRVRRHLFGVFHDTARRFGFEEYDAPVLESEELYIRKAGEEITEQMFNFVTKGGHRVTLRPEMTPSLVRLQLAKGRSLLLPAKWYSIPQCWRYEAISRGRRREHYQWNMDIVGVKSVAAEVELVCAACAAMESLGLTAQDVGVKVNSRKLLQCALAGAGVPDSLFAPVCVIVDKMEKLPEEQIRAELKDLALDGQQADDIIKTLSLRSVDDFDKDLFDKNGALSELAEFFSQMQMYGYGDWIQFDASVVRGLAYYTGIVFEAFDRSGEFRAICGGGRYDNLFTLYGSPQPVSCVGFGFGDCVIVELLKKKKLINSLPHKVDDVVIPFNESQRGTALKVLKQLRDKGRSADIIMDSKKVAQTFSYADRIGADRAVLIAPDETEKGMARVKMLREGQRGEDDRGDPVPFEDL

Source: ChEMBL document CHEMBL3988442, “University of Dundee, Small-Polar-MMV Screening Library” (2021).

Values are the deposited “Percent Effect”, in %.
The controls that fix the scale are not given in the record; negative values are as filed.
The compounds are a random part of those screened.

TcHisRS: 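Enzyme assay of histidyl-tRNA synthetase; the read-out is not stated. Target: Histidine-tRNA ligase, Trypanosoma cruzi CL Brener (UniProt Q4DA54). Compounds at 30 µM. Direction is inferred from retests: higher values go with stronger inhibition. Size under these conditions: about 69,000 compounds, about 31 of them at 50% or above in at least one test.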
ClpP1P2: 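ClpP1P2, Mycobacterium tuberculosis (UniProt P9WPC5 and UniProt P9WPC3). Protease assay of ClpP1P2, read by the AMC dye that it sets free. Tested at 50 µM. Direction is inferred from only a few compounds that gave an IC50; most scored high, so higher reads as stronger inhibition. Most other retested compounds had strongly negative values. Size under these conditions: about 69,000 compounds, about 10 of them at 50% or above in at least one test.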
PfKRS1: 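Lysine-tRNA ligase, Plasmodium falciparum 3D7 (UniProt Q8IDJ8). Enzyme assay of the cytosolic lysyl-tRNA synthetase in 384-well plates, read by luminescence. Tested at 30 µM. Higher reads as stronger inhibition, judged from the few compounds that gave an IC50. About 69,000 compounds were tested under these conditions; 0.071% (about 49) showed 50% or more at least once.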
LiHisRS: 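Enzyme assay of histidyl-tRNA synthetase; the read-out is not stated. Target: Histidine-tRNA ligase, Leishmania infantum (UniProt A4I591). Tested at 30 µM. Higher reads as stronger inhibition (inferred: compounds with an IC50 in retests scored well above the rest). The assay is labelled LdHisRS but filed under L. infantum. Size under these conditions: about 69,000 compounds, about 410 of them at 50% or above in at least one test.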

structure,TcHisRS,ClpP1P2,PfKRS1,LiHisRS
CCc1cc(O)nc(C2CCCN2C(=O)COC)n1 (configuration not stated),5.556,-4.271,3.435,14.43
O=C(c1ccc(C(F)(F)F)cc1)C1CCCN(C(=O)Cn2cnnn2)C1 (configuration not stated),2.674,-0.82,0.4861,1.571
Cc1ccc(S(=O)(=O)NC(=O)c2cccc(OCC(N)=O)c2)s1,5.263,6.841,-0.1067,-12.36
COc1ncccc1NC(=O)C1CCOCC1,1.729,-22.51,-0.2812,16.07
COc1ccc(C(C)NC(=O)c2nn(C)c(C)c2Br)cc1 (configuration not stated),5.699,14.23,-0.3868,6.452
N#Cc1cccc(CN2CC3(CCCCN3c3cccnc3)CC2=O)c1 (configuration not stated),7.527,-0.6798,-1.323,22.81
Cc1sc2c(C3CCCN(C)C3)nc(C)n2c1C (configuration not stated),-2.985,16.03,2.02,-11.58
O=C(NC1CCC1)[C@@H]1CCO[C@@H]2CCN(C3CCCC3)C[C@@H]21,3.922,-9.315,7.976,20
Cc1cc(C)n(CCCNC(=O)C(C)NC(=O)CC2CCCCC2)n1 (configuration not stated),5,-14.37,0.4319,4.11
CC(C)C1CN(c2ncccn2)CCC(=O)N1Cc1ccc(F)cc1 (configuration not stated),4.878,-1.524,-1.091,22.12
FC(F)(F)Cn1ccnc1CNCC1CCCN1c1cccnn1 (configuration not stated),4.611,-24.2,0.8998,10.71
CN1CCN(c2ccc(NS(=O)(=O)c3ccc(Br)s3)cc2C(=O)O)CC1,3,3.27,1.039,5.479
Cc1ccc(CNC(=O)c2c[nH]nc2NC(=O)COCC2CC2)cc1,9.195,-1.255,7.325,8.065
O=C(CN1CCOCC1)N1CCC2(CCCN(C3CCOCC3)C2=O)C1 (configuration not stated),5.025,-0.4907,1.962,18.09
COCC1c2nnn(CC3CC3)c2CCN1C(=O)N1CCCC1 (configuration not stated),-4.348,-2.092,-0.4673,22.37
O=c1nc(SCc2ccc(Cl)cc2)c2c(n1CCO)CCC2,4.082,-9.978,3.739,8.264
NC(=O)C1CCN(C(=O)CCn2ccc3ccc(Br)cc32)CC1,-1.754,-3.868,3.758,23.68
O=C(NCc1cc[nH]n1)NCC(O)c1ccc(F)c(F)c1 (configuration not stated),4.611,-26.58,3.009,8.929
CC(C)CN1CCCC1c1ccc(C(=O)Nc2cn(C)nn2)s1 (configuration not stated),2.89,-5.199,1.169,12
CC(C)C(=O)NCCNC(=O)C(C)OCC(F)(F)F (configuration not stated),0,4.502,6.077,13.33
CCn1ncc2c1C(COC)CN(S(=O)(=O)C1CC1)C2 (configuration not stated),2.488,-15.4,5.449,10.81
Cc1cc(C(=O)NCCN2CCCCC2C)nn1C(C)(C)C (configuration not stated),2.488,-7.101,-1.098,1.205
COC(=O)C1CCCN1C(=O)c1ccc(-n2nc(C)cc2C)cc1 (configuration not stated),0.5291,6.614,7.866,20.59
CCc1nccn1C1CCCN(C(=O)c2csc(NC(C)=O)n2)C1 (configuration not stated),-1.141,-4.662,5.032,6.25
Cc1cccc(-c2nc(C)nn2CC(=O)NC(C)C2CC2)c1 (configuration not stated),2.874,-17.16,0.1954,3.478
Cc1ccc(NS(=O)(=O)c2cc(C(=O)O)oc2C)c(Br)c1,2.105,-6.011,3.584,16.44
Cc1cc(C(=O)N2CCN(Cn3cc(Cl)cn3)CC2)c(C)o1,2.222,4.558,1.603,9.402
CN(C)CCN1C[C@@H]2CN(S(=O)(=O)c3ccccc3)C[C@@H]2C1=O,4.233,0.4205,1.414,4.545
CCc1cn[nH]c1C1CCCN(C(=O)c2ncoc2C(C)C)C1 (configuration not stated),3.279,-11.87,0.9245,5.479
Fc1cnc(N2CCc3nnc(COc4ccccn4)n3CC2)nc1,8.021,4.681,4.029,23.08
CC(C)(C(=O)N1CCC(C(N)=O)C1)c1ccccc1F (configuration not stated),6.522,11.71,4.881,15.15
CCC1CCCCN1CCNC(=O)N1CCN(Cc2ccon2)CC1 (configuration not stated),8.333,-0.2862,4.117,11.61
CCc1nc(N2CCC3(CCC(=O)N(Cc4ccncc4)C3)CC2)no1,-0.5181,24.64,8.032,0
CN(C)[C@@H]1CN(C(=O)c2cc3cccc(F)c3[nH]2)C[C@H]1O,4.857,-25.71,0.412,9.396
Cc1cc(CNC(=O)NCc2ccccc2N2CCOCC2)no1,6.548,-4.401,4.886,22.58
Cc1nc(-c2ccccc2)n(CC(=O)NC(C)(C)C)n1,5.523,-31.1,0.6281,7.895
CN(C)Cc1cnc(CC2CCN(CCc3ccccc3)CC2)cn1,8.812,-12.12,-1.212,12.86
Cn1cc(CN2CCC(F)(F)C3(CCN(c4cccc(F)c4)C3)C2)cn1 (configuration not stated),-3,29.48,-7.973,4.11
Cc1[nH]c2c(C)ccc(C)c2c1CC(=O)NCCNc1cccnc1,5.263,-10.2,-4.771,20.83
CCNc1ncc2c(n1)CN(c1ccc(CC)cc1)C2=O,0.8696,-6.317,3.16,13.79
Cn1cc(CN2CCC3(CC2)CCN(C(=O)c2cscn2)CC3)cn1,0.8772,-15.3,8.771,12.9
OCCNC1CSCCc2ccccc21 (configuration not stated),-5.195,4.158,2.922,8.333
CC(C)(C)c1cnc(CN2CCCCC2Cn2cccn2)o1 (configuration not stated),3.458,-19.36,-2.278,0
O=C(C(c1ccccc1)N1CCc2cncnc2C1)N1CCCCC1 (configuration not stated),17.46,14.33,3.462,17.65
c1cnc(NCc2cncc3c2CCN(CC2CC2)C3)nc1,9.524,-17.59,2.972,10
CCOc1cc(C(=O)N2CCN(CC)CC2)cc2occc12,3.125,-5.265,5.541,20.99
CN(C(=O)Nc1cccnc1)C1CCN(c2ccc(Cl)cc2)CC1,10.1,13.49,4.67,26.6
CCN1Cc2ccccc2CC2(CCN(CC(=O)O)CC2)C1=O,4.444,-4.663,2.332,0

3 of the entries, repeated:

{"structure": "CN(C)Cc1cnc(CC2CCN(CCc3ccccc3)CC2)cn1", "TcHisRS": 8.812, "ClpP1P2": -12.12, "PfKRS1": -1.212, "LiHisRS": 12.86}
{"structure": "O=C(NC1CCC1)[C@@H]1CCO[C@@H]2CCN(C3CCCC3)C[C@@H]21", "TcHisRS": 3.922, "ClpP1P2": -9.315, "PfKRS1": 7.976, "LiHisRS": 20}
{"structure": "CC(C)(C)c1cnc(CN2CCCCC2Cn2cccn2)o1", "stereo": "configuration not stated", "TcHisRS": 3.458, "ClpP1P2": -19.36, "PfKRS1": -2.278, "LiHisRS": 0}